This passage reports binding results from article PMC9478928.

Amino acid sequences for entries named in this document (tags omitted).
UniProt P35189: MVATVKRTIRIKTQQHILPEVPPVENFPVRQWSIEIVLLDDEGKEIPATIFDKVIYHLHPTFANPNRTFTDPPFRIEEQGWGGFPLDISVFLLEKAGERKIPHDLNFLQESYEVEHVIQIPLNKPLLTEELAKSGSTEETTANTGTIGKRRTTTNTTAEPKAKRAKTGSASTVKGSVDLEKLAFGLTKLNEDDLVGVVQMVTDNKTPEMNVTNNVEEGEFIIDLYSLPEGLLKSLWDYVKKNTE

These are yes or no findings as the source states them, for the method shown. In cells and extracts the contact can be indirect. Here binding means that the protein was enriched with, or labelled near, the bait; the list need not be complete. For some assays here: No binding means not detected with the bait. Sequences can lack the tags named with a protein.

Assay [1] addresses T1, Taf2, full-length, C-terminally 3xFlag-tagged (S. cerevisiae) (UniProt P23255).
T1 sequence: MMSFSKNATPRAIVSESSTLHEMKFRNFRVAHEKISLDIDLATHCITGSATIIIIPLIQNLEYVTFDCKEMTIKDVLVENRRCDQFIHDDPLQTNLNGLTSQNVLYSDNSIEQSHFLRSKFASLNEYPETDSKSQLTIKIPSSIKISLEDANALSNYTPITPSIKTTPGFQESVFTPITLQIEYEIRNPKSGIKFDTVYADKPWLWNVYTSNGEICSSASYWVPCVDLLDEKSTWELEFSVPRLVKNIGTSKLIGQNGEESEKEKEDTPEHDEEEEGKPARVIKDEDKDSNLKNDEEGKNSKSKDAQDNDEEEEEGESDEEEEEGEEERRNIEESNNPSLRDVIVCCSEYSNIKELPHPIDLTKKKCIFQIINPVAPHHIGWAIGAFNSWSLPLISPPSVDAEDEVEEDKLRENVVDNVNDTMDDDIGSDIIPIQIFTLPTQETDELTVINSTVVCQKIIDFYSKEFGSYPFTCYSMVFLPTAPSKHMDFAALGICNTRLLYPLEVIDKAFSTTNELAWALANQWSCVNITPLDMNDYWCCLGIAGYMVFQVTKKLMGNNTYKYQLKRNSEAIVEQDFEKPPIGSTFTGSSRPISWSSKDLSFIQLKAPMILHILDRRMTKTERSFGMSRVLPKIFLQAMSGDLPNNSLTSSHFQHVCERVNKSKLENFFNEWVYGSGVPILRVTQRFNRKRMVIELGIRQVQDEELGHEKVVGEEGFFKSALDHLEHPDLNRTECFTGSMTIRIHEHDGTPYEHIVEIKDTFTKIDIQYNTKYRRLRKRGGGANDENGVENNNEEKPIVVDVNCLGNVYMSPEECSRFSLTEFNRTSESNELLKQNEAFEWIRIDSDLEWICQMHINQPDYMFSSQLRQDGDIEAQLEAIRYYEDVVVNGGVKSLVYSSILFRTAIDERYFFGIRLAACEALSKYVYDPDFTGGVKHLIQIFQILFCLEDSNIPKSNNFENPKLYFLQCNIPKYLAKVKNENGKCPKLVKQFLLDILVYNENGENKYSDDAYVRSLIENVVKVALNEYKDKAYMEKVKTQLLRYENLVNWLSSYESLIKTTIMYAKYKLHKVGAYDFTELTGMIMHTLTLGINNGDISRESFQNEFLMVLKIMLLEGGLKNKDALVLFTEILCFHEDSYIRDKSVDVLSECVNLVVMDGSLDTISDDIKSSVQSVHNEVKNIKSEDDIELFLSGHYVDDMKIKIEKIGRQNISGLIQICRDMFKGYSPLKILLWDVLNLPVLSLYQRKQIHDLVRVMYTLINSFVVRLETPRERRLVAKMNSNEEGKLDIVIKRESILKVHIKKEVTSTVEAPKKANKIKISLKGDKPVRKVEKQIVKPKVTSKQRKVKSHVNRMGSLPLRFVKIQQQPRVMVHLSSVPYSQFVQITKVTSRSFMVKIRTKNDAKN
Nature of the assay: affinity purification with mass spectrometry; Taf2-Flag and Taf2ΔC1261-Flag from yeast extract on anti-FLAG M2 agarose; benzonase 50 U/ml; 250 mM KCl; washed six times; triplicates against a nontagged strain.

Assay [2] has as its target T2, Taf2ΔC1261, C-terminally 3xFlag-tagged (amino acids 1-1260) (S. cerevisiae) (UniProt P23255).
T2 sequence: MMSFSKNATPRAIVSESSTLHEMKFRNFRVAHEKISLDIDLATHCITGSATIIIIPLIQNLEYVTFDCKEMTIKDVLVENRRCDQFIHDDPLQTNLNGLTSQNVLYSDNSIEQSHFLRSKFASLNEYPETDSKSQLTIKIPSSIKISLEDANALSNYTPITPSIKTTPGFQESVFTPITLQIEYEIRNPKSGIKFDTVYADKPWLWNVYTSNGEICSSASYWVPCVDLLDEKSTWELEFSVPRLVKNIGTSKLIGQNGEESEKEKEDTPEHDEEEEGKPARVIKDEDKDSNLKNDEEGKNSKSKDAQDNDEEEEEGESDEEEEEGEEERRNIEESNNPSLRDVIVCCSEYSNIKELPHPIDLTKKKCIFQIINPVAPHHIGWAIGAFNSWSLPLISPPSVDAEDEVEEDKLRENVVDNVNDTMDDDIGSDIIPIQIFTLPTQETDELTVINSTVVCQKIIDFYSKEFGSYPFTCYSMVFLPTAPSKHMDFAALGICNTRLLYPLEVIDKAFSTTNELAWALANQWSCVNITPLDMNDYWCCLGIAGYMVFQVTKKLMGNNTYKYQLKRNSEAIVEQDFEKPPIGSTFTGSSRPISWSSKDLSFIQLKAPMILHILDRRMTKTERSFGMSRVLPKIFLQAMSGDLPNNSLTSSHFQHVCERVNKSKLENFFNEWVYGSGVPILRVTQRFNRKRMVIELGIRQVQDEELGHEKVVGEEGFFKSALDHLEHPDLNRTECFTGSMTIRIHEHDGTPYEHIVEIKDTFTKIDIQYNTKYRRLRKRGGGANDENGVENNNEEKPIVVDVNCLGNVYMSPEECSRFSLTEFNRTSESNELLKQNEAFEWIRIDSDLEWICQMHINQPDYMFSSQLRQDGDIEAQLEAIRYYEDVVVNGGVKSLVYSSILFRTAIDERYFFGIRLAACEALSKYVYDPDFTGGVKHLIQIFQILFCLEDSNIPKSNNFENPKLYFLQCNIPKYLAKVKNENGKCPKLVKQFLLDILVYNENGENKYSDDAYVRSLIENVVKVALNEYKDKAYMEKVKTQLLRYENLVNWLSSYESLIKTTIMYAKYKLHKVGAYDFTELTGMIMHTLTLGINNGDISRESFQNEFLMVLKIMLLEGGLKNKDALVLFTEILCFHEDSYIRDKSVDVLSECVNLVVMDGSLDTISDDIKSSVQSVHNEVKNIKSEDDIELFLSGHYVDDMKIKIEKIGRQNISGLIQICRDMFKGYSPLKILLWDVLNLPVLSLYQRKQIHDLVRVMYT
The description is as above.

Regarding “Taf14 (endogenous, untagged) (from UniProt P35189 1-244)”, the binding result is listed as “binds” in assay [1] and “no binding” in assay [2].
